Assay results taken from patent US20030129186A1.
No constants are given. Whether binding was seen depends on the method and setting. Some binding calls cover weakened binding; strength is not graded here.

Chains of the proteins cited; added tags and fusions are not shown. Residues count along the entry.
UniProt Q07954, residues 20-4544: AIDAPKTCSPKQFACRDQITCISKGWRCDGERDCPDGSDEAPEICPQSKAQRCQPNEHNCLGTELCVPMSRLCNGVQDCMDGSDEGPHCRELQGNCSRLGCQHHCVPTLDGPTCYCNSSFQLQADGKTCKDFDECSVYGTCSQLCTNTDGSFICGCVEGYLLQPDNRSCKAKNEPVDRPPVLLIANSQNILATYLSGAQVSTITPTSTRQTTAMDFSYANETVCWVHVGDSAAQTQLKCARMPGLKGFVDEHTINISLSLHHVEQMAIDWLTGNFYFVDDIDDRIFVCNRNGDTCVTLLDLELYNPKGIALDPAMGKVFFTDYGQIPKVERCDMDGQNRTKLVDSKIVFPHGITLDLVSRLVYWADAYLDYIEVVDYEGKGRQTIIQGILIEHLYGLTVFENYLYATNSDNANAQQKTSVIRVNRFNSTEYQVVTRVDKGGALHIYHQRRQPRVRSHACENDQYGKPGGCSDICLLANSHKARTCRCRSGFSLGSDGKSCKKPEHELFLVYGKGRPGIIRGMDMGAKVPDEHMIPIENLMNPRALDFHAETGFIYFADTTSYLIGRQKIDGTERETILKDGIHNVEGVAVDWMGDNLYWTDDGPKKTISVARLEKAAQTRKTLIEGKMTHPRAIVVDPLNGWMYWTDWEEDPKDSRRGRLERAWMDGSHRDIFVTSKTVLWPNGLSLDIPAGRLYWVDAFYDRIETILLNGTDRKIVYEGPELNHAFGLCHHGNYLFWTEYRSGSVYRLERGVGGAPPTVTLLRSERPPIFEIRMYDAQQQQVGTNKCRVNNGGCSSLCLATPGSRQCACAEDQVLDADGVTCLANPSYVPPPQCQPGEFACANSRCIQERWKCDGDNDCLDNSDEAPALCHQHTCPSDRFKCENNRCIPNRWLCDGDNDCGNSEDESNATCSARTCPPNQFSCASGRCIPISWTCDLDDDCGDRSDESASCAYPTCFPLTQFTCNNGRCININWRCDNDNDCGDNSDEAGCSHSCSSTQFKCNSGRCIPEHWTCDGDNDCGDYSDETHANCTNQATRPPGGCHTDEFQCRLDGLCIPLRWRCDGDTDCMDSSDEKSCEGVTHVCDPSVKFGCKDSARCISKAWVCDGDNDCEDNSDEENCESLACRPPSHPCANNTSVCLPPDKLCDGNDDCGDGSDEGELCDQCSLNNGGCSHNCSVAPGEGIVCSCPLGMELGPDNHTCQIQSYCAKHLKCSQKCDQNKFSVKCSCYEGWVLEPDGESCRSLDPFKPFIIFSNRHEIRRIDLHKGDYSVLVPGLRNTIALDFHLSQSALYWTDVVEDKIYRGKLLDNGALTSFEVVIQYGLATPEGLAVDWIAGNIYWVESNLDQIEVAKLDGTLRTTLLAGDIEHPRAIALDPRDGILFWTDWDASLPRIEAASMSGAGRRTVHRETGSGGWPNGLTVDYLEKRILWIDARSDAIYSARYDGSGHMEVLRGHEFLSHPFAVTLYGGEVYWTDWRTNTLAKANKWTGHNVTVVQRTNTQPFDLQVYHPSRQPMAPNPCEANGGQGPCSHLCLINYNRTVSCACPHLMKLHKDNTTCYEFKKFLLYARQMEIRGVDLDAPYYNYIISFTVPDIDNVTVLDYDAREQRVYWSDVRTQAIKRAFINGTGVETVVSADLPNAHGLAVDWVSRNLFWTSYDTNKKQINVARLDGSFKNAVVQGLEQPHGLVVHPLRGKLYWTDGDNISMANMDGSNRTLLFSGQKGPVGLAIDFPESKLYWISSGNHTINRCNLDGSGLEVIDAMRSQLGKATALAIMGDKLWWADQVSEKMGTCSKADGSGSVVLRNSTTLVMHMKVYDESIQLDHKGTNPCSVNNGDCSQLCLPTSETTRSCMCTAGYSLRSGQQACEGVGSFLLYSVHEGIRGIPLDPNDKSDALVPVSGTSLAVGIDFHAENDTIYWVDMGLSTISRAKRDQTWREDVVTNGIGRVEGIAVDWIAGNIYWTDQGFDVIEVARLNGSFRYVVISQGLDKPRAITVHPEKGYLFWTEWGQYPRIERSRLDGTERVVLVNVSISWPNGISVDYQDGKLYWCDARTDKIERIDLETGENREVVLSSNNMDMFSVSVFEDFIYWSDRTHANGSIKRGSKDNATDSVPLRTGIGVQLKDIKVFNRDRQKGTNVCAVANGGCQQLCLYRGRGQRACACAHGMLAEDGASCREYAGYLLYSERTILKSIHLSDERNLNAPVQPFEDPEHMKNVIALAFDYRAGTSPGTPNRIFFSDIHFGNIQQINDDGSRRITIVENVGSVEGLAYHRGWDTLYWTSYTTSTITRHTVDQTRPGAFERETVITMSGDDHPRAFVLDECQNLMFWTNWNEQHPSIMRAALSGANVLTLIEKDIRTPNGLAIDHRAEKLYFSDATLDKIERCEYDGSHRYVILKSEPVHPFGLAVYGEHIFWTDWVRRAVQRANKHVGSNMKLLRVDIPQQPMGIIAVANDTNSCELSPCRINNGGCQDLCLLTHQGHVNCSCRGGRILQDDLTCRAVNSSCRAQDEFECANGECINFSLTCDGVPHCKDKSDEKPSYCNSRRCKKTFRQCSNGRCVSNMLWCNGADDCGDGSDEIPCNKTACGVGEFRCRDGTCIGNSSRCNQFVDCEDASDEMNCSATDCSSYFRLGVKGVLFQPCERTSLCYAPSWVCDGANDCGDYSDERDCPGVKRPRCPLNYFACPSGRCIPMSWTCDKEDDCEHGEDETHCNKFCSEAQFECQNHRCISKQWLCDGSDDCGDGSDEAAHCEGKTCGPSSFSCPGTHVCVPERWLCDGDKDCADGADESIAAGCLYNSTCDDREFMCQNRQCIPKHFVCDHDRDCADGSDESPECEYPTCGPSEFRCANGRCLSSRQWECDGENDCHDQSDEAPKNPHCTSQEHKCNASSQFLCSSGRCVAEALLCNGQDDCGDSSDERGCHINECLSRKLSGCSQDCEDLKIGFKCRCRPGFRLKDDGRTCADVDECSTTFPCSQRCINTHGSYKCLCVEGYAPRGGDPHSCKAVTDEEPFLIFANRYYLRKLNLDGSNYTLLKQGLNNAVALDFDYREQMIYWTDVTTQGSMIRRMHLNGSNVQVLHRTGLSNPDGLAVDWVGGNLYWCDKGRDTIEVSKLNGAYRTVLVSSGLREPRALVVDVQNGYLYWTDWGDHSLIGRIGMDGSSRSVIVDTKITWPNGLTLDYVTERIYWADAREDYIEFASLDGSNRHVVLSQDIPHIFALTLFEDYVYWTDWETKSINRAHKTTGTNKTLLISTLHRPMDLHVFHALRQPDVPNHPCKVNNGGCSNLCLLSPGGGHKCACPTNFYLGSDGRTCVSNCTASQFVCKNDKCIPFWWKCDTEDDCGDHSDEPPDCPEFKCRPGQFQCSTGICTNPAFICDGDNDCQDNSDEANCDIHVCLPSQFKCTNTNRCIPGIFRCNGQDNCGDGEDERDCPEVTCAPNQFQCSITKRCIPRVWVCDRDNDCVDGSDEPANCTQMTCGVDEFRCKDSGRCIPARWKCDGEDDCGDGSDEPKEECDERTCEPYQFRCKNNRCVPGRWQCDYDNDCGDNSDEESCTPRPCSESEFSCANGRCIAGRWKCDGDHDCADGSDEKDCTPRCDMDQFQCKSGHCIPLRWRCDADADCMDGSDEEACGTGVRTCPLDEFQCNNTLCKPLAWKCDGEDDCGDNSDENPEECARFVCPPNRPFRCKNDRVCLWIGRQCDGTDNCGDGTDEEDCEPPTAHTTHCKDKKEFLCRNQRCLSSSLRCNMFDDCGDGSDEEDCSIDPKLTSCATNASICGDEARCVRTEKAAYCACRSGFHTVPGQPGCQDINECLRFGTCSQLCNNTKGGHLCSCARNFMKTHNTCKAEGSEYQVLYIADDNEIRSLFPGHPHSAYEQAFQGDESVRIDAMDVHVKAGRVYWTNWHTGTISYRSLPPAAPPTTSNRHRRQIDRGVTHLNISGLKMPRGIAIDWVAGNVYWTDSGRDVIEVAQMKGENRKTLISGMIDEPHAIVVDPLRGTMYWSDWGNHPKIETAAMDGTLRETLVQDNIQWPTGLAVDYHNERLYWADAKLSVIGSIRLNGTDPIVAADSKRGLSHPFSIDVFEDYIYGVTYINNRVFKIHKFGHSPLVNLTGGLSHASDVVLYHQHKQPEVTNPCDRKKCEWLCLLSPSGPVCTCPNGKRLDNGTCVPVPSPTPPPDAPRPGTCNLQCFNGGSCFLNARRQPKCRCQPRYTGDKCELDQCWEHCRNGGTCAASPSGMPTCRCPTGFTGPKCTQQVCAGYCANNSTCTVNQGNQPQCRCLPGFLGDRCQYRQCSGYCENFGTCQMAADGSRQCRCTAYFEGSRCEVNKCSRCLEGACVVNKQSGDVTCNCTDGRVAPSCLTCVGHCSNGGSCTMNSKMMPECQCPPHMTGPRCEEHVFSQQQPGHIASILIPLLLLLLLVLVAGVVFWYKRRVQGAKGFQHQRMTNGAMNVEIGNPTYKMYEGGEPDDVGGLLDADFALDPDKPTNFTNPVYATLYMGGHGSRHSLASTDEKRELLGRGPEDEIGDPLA

Assays:
[1] = biological target: LRP/LRP1B on U-87 cells (human) (UniProt Q07954); assay: U-87 cells incubated with p97 at 4 C, DSS cross-linking, non-reducing SDS-PAGE, immunoblot with anti-LRP alpha-subunit mAb 8G1 (legend of FIG. 29)
[2] = biological target: LRP/LRP1B on U-87 cells (human) (UniProt Q07954); assay: U-87 cells incubated with p97 at 4 C, DSS cross-linking, non-reducing SDS-PAGE, immunoblot with anti-LRP alpha-subunit mAb 8G1 (FIG. 29)

binding [1]: binds
binding [2]: binds
B1: recombinant human melanotransferrin (p97) (ligand, UniProt P08582 20-709, looked up)
chain: GMEVRWCATSDPEQHKCGNMSEAFREAGIQPSLLCVRGTSADHCVQLIAAQEADAITLDGGAIYEAGKEHGLKPVVGEVYDQEVGTSYYAVAVVRRSSHVTIDTLKGVKSCHTGINRTVGWNVPVGYLVESGRLSVMGCDVLKAVSDYFGGSCVPGAGETSYSESLCRLCRGDSSGEGVCDKSPLERYYDYSGAFRCLAEGAGDVAFVKHSTVLENTDGKTLPSWGQALLSQDFELLCRDGSRADVTEWRQCHLARVPAHAVVVRADTDGGLIFRLLNEGQRLFSHEGSSFQMFSSEAYGQKDLLFKDSTSELVPIATQTYEAWLGHEYLHAMKGLLCDPNRLPPYLRWCVLSTPEIQKCGDMAVAFRRQRLKPEIQCVSAKSPQHCMERIQAEQVDAVTLSGEDIYTAGKTYGLVPAAGEHYAPEDSSNSYYVVAVVRRDSSHAFTLDELRGKRSCHAGFGSPAGWDVPVGALIQRGFIRPKDCDVLTAVSEFFNASCVPVNNPKNYPSSLCALCVGDEQGRNKCVGNSQERYYGYRGAFRCLVENAGDVAFVRHTTVFDNTNGHNSEPWAAELRSEDYELLCPNGARAEVSQFAACNLAQIPPHAVMVRPDTNIFTVYGLLDKAQDLFGDDHNKNGFKMFDSSNYHGQDLLFKDATVRAVPVGEKTTYRGWLGLDYVAALEGMSSQQC
